Results are given in words; binding and its absence hold for the method and conditions named. Binding seen in cells or lysates may run through a third protein. Some binding calls cover weakened binding; strength is not graded here.
Biological target: Axl receptor tyrosine kinase (human (endogenous in DMPM tumour tissue)) (UniProt P30530)
Assay: co-IP; 1 mg of total protein lysate from frozen DMPM surgical samples for IP, 20 µl of immunoprecipitated protein for WB; endogenous receptors

binding: binds
Substance: epidermal growth factor receptor (from UniProt P00533 25-1210)
